Record: PubChem BioAssay AID493246 (Drosophila RNAi Screening Center, 2011)

Test: 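Identify essential fly genes by loss of cell viability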 (primary screen)
System: Drosophila Kc and S2R+ cells
Knock-down reagent: long dsRNA against Drosophila genes
Detection: 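Raw, unnormalised count of remaining cells in each well; per-plate z-scores of cell number underlie the calls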
Direction: Kc cell number and S2R+ cell number: higher = more cells remaining
Active means: 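Active when the per-plate z-score of cell number is 3 or more in the direction of fewer cells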
In all, the deposit lists about 21,000 reagents; this is an unselected part of those that have a named target and a result. Over the whole deposit, 429 (2%) were called active. 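Values are raw and not normalised between plates; calls rest on per-plate z-scores that were not deposited.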 Unmarked entries are inactive. The numbers tell different reagents against one gene apart. Names joined by + are all predicted targets of the reagent. No sequences are given here. The record does not give: the amount of reagent, the time to read-out.

The first 4 entries, ahead of the listing:
gene knocked down	reagent no.	Kc cell number, rep 1	Kc cell number, rep 2	S2R+ cell number, rep 1	S2R+ cell number, rep 2
Klp67A + CG34456	1	1.72e6	1.60e6	1.38e6	1.56e6
Ldsdh1	1	1.61e6	1.67e6	1.02e6	1.15e6
Patsas	1	1.43e6	1.53e6	1.01e6	1.06e6
ndl	1	1.49e6	1.42e6	1.19e6	1.17e6

Results, repeating the preview:
gene knocked down	reagent no.	Kc cell number, rep 1	Kc cell number, rep 2	S2R+ cell number, rep 1	S2R+ cell number, rep 2
Klp67A + CG34456	1	1.72e6	1.60e6	1.38e6	1.56e6
Ldsdh1	1	1.61e6	1.67e6	1.02e6	1.15e6
Patsas	1	1.43e6	1.53e6	1.01e6	1.06e6
ndl	1	1.49e6	1.42e6	1.19e6	1.17e6
Cpr76Bb	1	1.44e6	1.44e6	1.37e6	1.47e6
CG4461	1	1.46e6	1.52e6	1.22e6	1.34e6
TpnC47D	1	1.59e6	1.63e6	1.18e6	1.32e6
CG1847	1	5.72e5		8.47e5	
CG42304 + Snup	1	1.37e6	1.43e6	1.09e6	1.15e6
CG42304 + Snup	2	1.55e6	1.52e6	8.73e5	9.89e5
CG11413 + CG4622	1	1.85e6	1.93e6	1.28e6	1.37e6
CG10804	1	5.60e5		8.37e5	
CG10931	1	1.61e6	1.61e6	1.23e6	1.42e6
CG31827 + CG18478	1	1.50e6	1.58e6	1.24e6	1.37e6
Sin3A	1	1.18e6	1.18e6	7.52e5	8.60e5
zld	1	1.50e6	1.49e6	9.55e5	1.06e6
brk	1	1.42e6	1.45e6	8.72e5	9.81e5
bwa	1	4.61e5		8.33e5	
bwa	2	1.48e6	1.67e6	1.35e6	3.01e5
CG46339	1	4.94e5		8.40e5	
Mrp5	1	1.28e6	1.22e6	1.13e6	1.25e6
Mrp5	2	1.30e6	1.28e6	1.13e6	1.22e6
sff	1	1.45e6	1.49e6	1.24e6	1.31e6
CG6870	1	1.57e6	1.61e6	1.36e6	1.50e6
CG12836	1	1.76e6	1.75e6	1.42e6	1.54e6
Nup107	1	1.13e6	1.43e6	1.05e6	1.19e6
Dip-B	1	1.53e6	1.61e6	1.15e6	1.22e6
CG11369	1	1.57e6	1.58e6	1.13e6	1.23e6
CG5004	1	1.56e6	1.62e6	1.09e6	1.30e6
CG5004	2	1.75e6	1.78e6	1.18e6	1.37e6
CG5004	3	1.20e6 (active)	1.16e6	6.73e5	7.93e5
Ipk1	1	1.42e6	1.48e6	1.16e6	1.20e6
Ipk1	2	1.52e6	1.60e6	1.31e6	4.12e5
Ipk1	3	1.52e6	1.63e6	1.32e6	3.84e5
CG15394	1	1.51e6	1.55e6	1.04e6	1.23e6
stnB + stnA	1	1.48e6	1.53e6	1.03e6	1.17e6
stnB + stnA	2	1.40e6	1.46e6	1.06e6	1.14e6
Dcps	1	1.57e6	1.64e6	1.20e6	1.28e6
CG17618 (retired record) + CG45049	1	1.46e6	1.43e6	9.89e5	1.09e6
CG31275	1	1.49e6	1.55e6	1.15e6	1.30e6
